Data reported in US8614242B2, “1-(heterocyclic carbonyl)-2-substituted pyrrolidines” (Bayer Intellectual Property GmbH, priority 2010, dated 2013).
Some of these results come from one statement about several compounds together.

Legend:
Leptosphaeria nodorum = assay: In vivo preventive test on Leptosphaeria nodorum (wheat); conditions: 500 ppm of active ingredient, evaluated 8 days after inoculation, listed as 1.110
Excerpt: After the spray coating has been dried, the plants are sprayed with a spore suspension of Leptosphaeria nodorum.

Alternaria solani = assay: In vivo preventive test on Alternaria solani (tomato); conditions: 500 ppm of active ingredient, evaluated 7 days after inoculation, listed as 1.110
Experimental: The plants remain for one day in an incubation cabinet at approximately 22° C. and a relative atmospheric humidity of 100%. Then the plants are placed in an incubation cabinet at approximately 20° C. and a relative atmospheric humidity of 96%.

## Cn1cc(C(=O)N2CCCC2Cc2c(Cl)cccc2Cl)c(C(F)F)n1 (centres unmarked) [Example 1.110 from WO-2009/153191, [2-(2,6-dichlorobenzyl)pyrrolidin-1-yl][3-(difluoromethyl)-1-methyl-1H-pyrazol-4-yl]methanone, reference compound]
Leptosphaeria nodorum
  Efficacy: less than 50%
Alternaria solani
  Efficacy: at least 90%
